Consider one sequence from publication PMC5996148.

Protein sequences, listed by entry. Tags and fused reporters are not part of them. Lines headed by an entry give the natural chain unless they say otherwise; changes in a name come on top.
UniProt Q96JL9: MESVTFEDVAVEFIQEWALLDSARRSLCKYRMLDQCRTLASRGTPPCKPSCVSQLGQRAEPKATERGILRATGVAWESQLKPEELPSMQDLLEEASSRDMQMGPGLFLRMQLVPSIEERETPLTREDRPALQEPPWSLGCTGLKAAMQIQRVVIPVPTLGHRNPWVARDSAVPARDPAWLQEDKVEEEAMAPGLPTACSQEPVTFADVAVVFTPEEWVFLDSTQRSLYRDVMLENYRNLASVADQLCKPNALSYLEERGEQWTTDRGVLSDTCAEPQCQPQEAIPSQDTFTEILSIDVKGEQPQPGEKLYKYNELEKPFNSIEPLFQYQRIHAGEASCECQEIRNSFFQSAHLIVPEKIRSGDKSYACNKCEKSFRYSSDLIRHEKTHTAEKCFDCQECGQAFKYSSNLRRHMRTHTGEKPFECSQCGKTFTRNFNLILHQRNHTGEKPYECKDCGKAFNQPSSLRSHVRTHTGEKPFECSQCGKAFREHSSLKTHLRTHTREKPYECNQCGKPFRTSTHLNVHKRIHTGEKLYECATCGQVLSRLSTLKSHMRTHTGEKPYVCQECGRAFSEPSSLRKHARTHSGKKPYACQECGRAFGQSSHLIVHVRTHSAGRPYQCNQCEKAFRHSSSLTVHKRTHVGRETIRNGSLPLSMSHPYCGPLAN
UniProt Q8TF39: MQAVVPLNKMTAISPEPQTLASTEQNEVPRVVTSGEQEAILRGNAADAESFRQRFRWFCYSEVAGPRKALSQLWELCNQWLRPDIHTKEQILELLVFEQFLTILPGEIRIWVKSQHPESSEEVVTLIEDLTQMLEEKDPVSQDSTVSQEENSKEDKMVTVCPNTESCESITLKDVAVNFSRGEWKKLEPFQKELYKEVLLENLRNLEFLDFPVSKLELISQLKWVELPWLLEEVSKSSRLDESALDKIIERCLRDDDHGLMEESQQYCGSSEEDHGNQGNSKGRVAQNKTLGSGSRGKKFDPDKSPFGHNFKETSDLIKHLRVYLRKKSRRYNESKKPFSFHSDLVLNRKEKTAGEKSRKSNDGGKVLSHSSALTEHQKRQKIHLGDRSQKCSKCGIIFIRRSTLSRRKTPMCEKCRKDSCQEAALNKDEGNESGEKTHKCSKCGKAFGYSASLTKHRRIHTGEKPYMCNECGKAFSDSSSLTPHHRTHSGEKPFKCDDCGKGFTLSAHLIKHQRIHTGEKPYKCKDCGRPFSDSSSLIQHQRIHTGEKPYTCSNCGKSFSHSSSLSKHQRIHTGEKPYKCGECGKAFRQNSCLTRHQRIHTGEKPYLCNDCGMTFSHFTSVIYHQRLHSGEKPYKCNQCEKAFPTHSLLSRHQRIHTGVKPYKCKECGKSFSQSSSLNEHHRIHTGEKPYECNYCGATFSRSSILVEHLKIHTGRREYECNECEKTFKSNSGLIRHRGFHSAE

Common to all, as to test: protein microarray (ProtoArray v5.0), streptavidin-Alexa Fluor 647
What all share (details): 3'-biotin; 20 mM Tris (pH 7.5), 5 mM MgCl2, 100 mM KCl, 0.1% Tween-20, A/T-rich and random oligonucleotide blockers; temperature not stated; high values mean tight binding

The subject of assay [1] is ZBTB25 (human).
The test system of assay [2] is ZBTB8OS (human).
In assay [3] the target is T1, ZC3H3 (UniProt Q8IXZ2).
T1 sequence: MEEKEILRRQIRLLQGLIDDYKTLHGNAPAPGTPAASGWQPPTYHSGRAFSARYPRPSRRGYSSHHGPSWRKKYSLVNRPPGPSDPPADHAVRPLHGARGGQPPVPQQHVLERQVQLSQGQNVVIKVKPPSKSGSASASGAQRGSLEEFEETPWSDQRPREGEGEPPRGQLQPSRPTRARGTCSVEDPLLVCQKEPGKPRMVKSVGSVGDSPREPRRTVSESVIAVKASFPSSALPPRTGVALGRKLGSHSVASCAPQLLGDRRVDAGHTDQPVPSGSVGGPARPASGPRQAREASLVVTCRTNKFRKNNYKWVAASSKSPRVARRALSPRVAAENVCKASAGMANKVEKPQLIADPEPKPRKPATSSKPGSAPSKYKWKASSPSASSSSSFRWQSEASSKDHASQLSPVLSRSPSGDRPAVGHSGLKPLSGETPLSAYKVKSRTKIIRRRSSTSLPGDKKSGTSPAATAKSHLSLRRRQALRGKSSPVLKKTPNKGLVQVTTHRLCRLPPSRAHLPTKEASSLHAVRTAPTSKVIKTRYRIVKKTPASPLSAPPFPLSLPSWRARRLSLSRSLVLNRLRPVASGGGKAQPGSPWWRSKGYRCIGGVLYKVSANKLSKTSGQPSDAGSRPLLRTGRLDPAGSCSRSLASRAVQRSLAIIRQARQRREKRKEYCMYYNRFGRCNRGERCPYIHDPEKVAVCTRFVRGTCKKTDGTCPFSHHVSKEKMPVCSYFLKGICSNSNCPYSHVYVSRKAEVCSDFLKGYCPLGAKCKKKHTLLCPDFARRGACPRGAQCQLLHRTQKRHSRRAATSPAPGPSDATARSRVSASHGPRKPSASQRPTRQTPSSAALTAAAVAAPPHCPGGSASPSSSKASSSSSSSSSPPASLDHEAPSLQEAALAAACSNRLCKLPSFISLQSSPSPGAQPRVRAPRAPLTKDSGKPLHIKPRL

Assay [4] deals with ZMYM5 (human).
Assay [5] has as its system ZMYM6 (human).
Assay [6] concerns ZNF3 (human).
Assay [7] addresses ZNF333 (UniProt Q96JL9).
Assay [8] has as its target ZNF483 (UniProt Q8TF39).
The subject of assay [9] is ZNF616 (human).
Assay [10] concerns ZNF695 (human).
Assay [11] has as its system ZNF718 (human).
Assay [12] has as its system ZNF765 (human).
Assay [13] has as its target T2, ZRF1 (UniProt Q99543).
T2 sequence: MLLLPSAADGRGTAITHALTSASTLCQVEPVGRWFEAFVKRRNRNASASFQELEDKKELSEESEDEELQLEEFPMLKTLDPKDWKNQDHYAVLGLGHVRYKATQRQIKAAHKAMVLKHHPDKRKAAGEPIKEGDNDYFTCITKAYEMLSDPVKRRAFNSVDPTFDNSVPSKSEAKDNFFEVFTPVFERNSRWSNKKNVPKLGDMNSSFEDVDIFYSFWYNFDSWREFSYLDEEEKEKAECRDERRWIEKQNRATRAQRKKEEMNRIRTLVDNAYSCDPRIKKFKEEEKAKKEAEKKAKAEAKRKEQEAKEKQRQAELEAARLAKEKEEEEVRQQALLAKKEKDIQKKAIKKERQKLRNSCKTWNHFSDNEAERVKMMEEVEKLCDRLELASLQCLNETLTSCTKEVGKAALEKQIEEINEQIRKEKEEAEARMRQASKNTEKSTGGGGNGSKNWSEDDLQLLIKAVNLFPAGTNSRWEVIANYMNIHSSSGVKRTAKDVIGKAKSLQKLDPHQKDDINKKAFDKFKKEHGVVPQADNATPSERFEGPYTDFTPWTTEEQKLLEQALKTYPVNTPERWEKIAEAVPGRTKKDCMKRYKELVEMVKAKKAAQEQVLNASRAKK

The subject of assay [14] is ZSCAN18 (human).
Assay [15] concerns the target T3, ZWINT (UniProt O95229).
T3 sequence: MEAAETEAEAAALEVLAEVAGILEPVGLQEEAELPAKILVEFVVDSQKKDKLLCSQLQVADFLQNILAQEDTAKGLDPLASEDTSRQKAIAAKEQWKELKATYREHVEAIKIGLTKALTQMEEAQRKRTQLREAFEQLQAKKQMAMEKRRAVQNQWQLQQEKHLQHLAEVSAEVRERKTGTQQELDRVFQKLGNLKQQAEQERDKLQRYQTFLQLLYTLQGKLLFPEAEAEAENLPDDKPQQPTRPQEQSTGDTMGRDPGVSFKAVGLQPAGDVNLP

The subject of assay [16] is Zinc finger BED domain-containing protein 1 (human).
For assay [17], the system named is Zinc finger CCCH domain-containing protein 7A (human).
The subject of assay [18] is Zinc finger and SCAN domain-containing protein 2 (human).
The subject of assay [19] is Zinc finger protein 655 (human).
Assay [20] relates to Zinc finger protein ZXDC (human).

The other results are listed elsewhere or left out. For some assays here: The exact form of the protein is not confirmed.

Regarding “GGGGACAGGGGTATGGGGAGGGG [G4-3 biotinylated (CtG)]”, the binding signal in assay [1] was -0.333 z-score; in assay [2], -0.328 z-score; in assay [3] it was 3.23 z-score; in assay [4] it was -0.328 z-score; in assay [5] it was -0.339 z-score; in [6], -0.333 z-score. Also, the binding signal in assay [7] was -0.325 z-score; in [8], -0.338 z-score; in assay [9], -0.323 z-score; in [10], -0.331 z-score; in assay [11], -0.326 z-score; in [12] it was -0.324 z-score. For the same sequence, the binding signal in assay [13] was -0.279 z-score; in assay [14], -0.338 z-score; in [15], -0.338 z-score; in assay [16], -0.341 z-score; in [17] it was -0.314 z-score; in [18], -0.327 z-score. The binding signal in assay [19] is -0.32 z-score; in assay [20], -0.312 z-score.
